Results from US8329757B2, “Curcumin analog compositions and related methods” (Charlesson, LLC, priority 2008, dated 2012).
Some entries share one result that the patent states for a list of compounds. At least one structure is not confirmed: it was looked up by name or label, or the drawing left a doubt.

How the values were obtained:
cancer cells = experiment: MTT cell proliferation assay, cancer cells (summary over lines); assay type: cell-based, human; conditions: 72 hours, range across cancer cell lines, read-out: IC50, growth of cancer cells (range over cell lines)
Description: (§1) Primary bovine retinal capillary endothelial cells (BRCECs), pericytes and human prostate adenocarcinoma cells (PC-3), and human breast cancer cells (MCF-7 and MDA-MB-231) were treated with the CLT010 compounds at various concentrations for 72 hours.

[1] = tested on: Primary bovine retinal capillary endothelial cells (BRCECs); experiment: MTT cell proliferation assay, BRCECs; assay type: cell-based; conditions: 72 hours, mean±SD, n=3, read-out: IC50 (μM) BRCEC
Description: as §1

SMILES	IC50 (cancer cells) [µM]	IC50 [1] [µM]
COc1cc(/C=C/c2cc(/C=C/c3ccc(OS(N)(=O)=O)c(OC)c3)[nH]n2)ccc1OS(N)(=O)=O [CLT010-07]	0.6 to 6.7	3.6 to 9.7
COc1cc(/C=C/C(=O)/C=C/c2cc(OC)c(OS(N)(=O)=O)c(OC)c2)cc(OC)c1OS(N)(=O)=O [CLT010-12]	0.6 to 6.7	3.6 to 9.7
